# According to PMC5425828:
# Molecular target: T1, Sco1678 (GntR-His) (Streptomyces coelicolor M145) (UniProt Q9AD89)
# T1 sequence (looked up): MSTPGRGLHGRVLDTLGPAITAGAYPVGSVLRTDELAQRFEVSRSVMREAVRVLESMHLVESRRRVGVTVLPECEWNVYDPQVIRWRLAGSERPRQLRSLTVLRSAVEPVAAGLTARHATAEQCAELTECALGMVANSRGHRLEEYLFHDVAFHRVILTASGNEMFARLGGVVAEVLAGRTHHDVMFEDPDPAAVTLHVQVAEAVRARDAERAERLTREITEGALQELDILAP
# Assay: EMSA
# Conditions: DNA not completely released, 20 mM Tris/HCl pH 7.5, 50 mM KCl, 10 mM MgCl2, 5% (v/v) glycerol, 0.5 mM EDTA, 25 min at 25 C, 0.2 pmol Cy5 probe, 0.93-4.18 pmol protein, 8% native PAGE, 1x TBE, recombinant protein, residues 1-233, protein details: C-terminal His6, label: Cy5, probe letters rebuilt from the primers and the …
sequence,measurement,setting,value
AGCCAGTGGCGATAAGGTTGCTGCATCGCACTCTCGCTGTCTGCTGTCTTCGTCGACACCTGATGTCGACGCAACTGAAACTCATTAGTACGACAACTTCAAGAGTCTGTGACGTATAAGTCTGACTTTTTGTTCCCGTGACATGCCCCGTACGCTGAGTGCATGAGCACACCGGGCCGGGGGCTGCACGGCCGCGTACTGGACACCCTCGGCCCCGCGATCACAGCTTATCGCCACTGGCT (double strand) [gntR-gntK intergeneric region],binding result,5 mM gluconate,binds more weakly
same,binding result,"5 mM glucono-1,5-lactone",binds more weakly

# The exact form of at least one protein or probe is not confirmed. A weaker result is weaker than the reference pair of the same experiment. Protein sequences can lack the tags named with them.
